# The list is a part of this screen's results and no random one: it is rich in T/C values a quarter to a half above the control, in often repeated tests (any T/C) and in doses without a T/C. Other doses and runs of a compound stand elsewhere. T/C gives the treated animals as a percentage of the vehicle group. Some doses have a count of surviving animals in place of a T/C: the source holds a T/C of zero for them, seemingly a mark for toxic or unscored doses. Some survivor counts are full or nearly so, which does not show that the dose was tolerated: the source hardly ever lists a survival T/C far under the control, and the zero likely stands for such cases as well. Counts of survivors are from the toxicity check (mostly the fifth day) where no day follows; animals may have died later. Schedules are NCI's codes, taken here to give the interval after Q, in days (D) or hours (H), and the number of doses after X. Where survival is the endpoint, the PubChem record calls one and a half times the control and up active, and a quarter to a half above the control has no call in these data; cut-offs in other NCI protocols can differ. Some entries hold several experiments; the results are listed from low to high. Some T/C values are followed by the survivors on the day toxicity was checked, most often the fifth; without a count, all were alive then.
# Tested on: BDF1 mice, P388 leukemia ip, median survival T/C
# Assay: NCI In Vivo Anticancer Drug Screen. Data for tumor model P388 Leukemia (intraperitoneal) in B6D2F1 (BDF1) mice
# Settings: T/C endpoint: median survival time, higher T/C = longer survival
# How it was run: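 Read-out is survival of treated animals expressed relative to the vehicle group, as a T/C ratio.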
# [1] = dose: 50.0 mg/kg/injection, schedule: Q04DX003 (ip), vehicle: saline
# [2] = dose: 100.0 mg/kg/injection, schedule: Q04DX003 (ip), vehicle: saline
# [3] = dose: 400.0 mg/kg/injection, schedule: Q01DX009 (ip), vehicle: saline
# [4] = dose: 200.0 mg/kg/injection, schedule: Q01DX009 (ip), vehicle: saline with Tween-80
# [5] = dose: 200.0 mg/kg/injection, schedule: Q04DX003 (ip), vehicle: saline with Tween-80
# [6] = dose: 400.0 mg/kg/injection, schedule: Q04DX003 (ip), vehicle: saline with Tween-80
# [7] = dose: 25.0 mg/kg/injection, schedule: Q01DX009 (ip), vehicle: saline
# [8] = dose: 100.0 mg/kg/injection, schedule: Q01DX009 (ip), vehicle: saline
# [9] = dose: 200.0 mg/kg/injection, schedule: Q01DX009 (ip), vehicle: saline
# [10] = dose: 100.0 mg/kg/injection, schedule: Q01DX009 (ip), vehicle: saline with Tween-80
# [11] = dose: 400.0 mg/kg/injection, schedule: Q01DX009 (ip), vehicle: saline with Tween-80
structure (smiles),measurement,setting,value
Cn1cnc([N+](=O)[O-])c1Sc1nc(N)nc2c1ncn2C1OC(CO)C(O)C1O (stereo unspecified),T/C,"dose: 9.2 mg/kg/injection, schedule: Q01DX009 (ip), vehicle: saline",141 % of control
same,T/C,"dose: 10.0 mg/kg/injection, schedule: Q04DX003 (ip), vehicle: saline",145 % of control
same,T/C,"dose: 14.06 mg/kg/injection, schedule: Q01DX009 (ip), vehicle: saline",140 and 141 % of control
same,T/C,"dose: 21.0 mg/kg/injection, schedule: Q01DX009 (ip), vehicle: saline",140 % of control
same,T/C,"dose: 25.0 mg/kg/injection, schedule: Q04DX003 (ip), vehicle: saline",140 % of control
same,T/C,"dose: 28.12 mg/kg/injection, schedule: Q01DX009 (ip), vehicle: saline",125 % of control [5 of 6 alive]
same,T/C,[1],140 % of control
same,T/C,[2],131 % of control
same,survivor count,"dose: 112.5 mg/kg/injection, schedule: Q01DX009 (ip), vehicle: saline",6 of 6
same,survivor count,"dose: 225.0 mg/kg/injection, schedule: Q01DX009 (ip), vehicle: saline",6 of 6
same,survivor count,"dose: 225.0 mg/kg/injection, schedule: Q04DX003 (ip), vehicle: saline",6 of 6
same,survivor count,"dose: 335.0 mg/kg/injection, schedule: Q04DX003 (ip), vehicle: saline",6 of 6
Cc1ccc(C(=S)NC(=O)Nc2ccccc2)cc1,survivor count,"dose: 400.0 mg/kg/injection, schedule: Q01DX001 (ip), vehicle: saline with Tween-80",6 of 6
COC(=O)C1(N)CCCC1,survivor count,[3],5 of 6
CC1CCCC/C1=N/NC(=O)c1ccccc1 (stereo unspecified),survivor count,[4],6 of 6
same,survivor count,[5],6 of 6
same,survivor count,[6],2 of 6
CN1CCN(c2ccc3nnc(Cl)n3n2)CC1,survivor count,"dose: 12.5 mg/kg/injection, schedule: Q01DX009 (ip), vehicle: saline",6 of 7
same,survivor count,[7],7 of 7
same,survivor count,"dose: 50.0 mg/kg/injection, schedule: Q01DX009 (ip), vehicle: saline",7 of 7
CCOC(=O)c1cnc(N(C)C)[nH]c1=O,survivor count,[8],3 of 3
same,survivor count,[9],3 of 3
same,survivor count,[3],0 of 3
CC12OC1C(=O)c1ccccc1C2=O (stereo unspecified),survivor count,"dose: 5.0 mg/kg/injection, schedule: Q01DX009 (ip), vehicle: Klucel (hydroxypropylcellulose) (HPC)",6 of 6
same,survivor count,"dose: 10.0 mg/kg/injection, schedule: Q01DX009 (ip), vehicle: Klucel (hydroxypropylcellulose) (HPC)",6 of 6
same,survivor count,"dose: 20.0 mg/kg/injection, schedule: Q04DX003 (ip), vehicle: Klucel (hydroxypropylcellulose) (HPC)",4 of 6
CC12NC(=O)NC1(C)NC(=O)N2 (stereo unspecified),survivor count,[6],2 of 6
CC1=CC(=O)NC1O (stereo unspecified),survivor count,"dose: 5.0 mg/kg/injection, schedule: Q01DX010 (ip), vehicle: saline",4 of 4
O=[N+]([O-])OCc1c(Cl)nc(Cl)c(Cl)c1Cl,survivor count,[10],4 of 6
NCCS(=O)(=O)O,T/C,[7],127 % of control
same,survivor count,[7],6 of 6
same,T/C,[8],131 % of control
same,survivor count,[9],6 of 6
CN(C)CCC(=O)c1ccc(Cl)cc1,survivor count,"dose: 150.0 mg/kg/injection, schedule: Q01DX009 (ip), vehicle: saline with Tween-80",2 of 6
CC(C)OC(=O)Nc1ccccc1Cl,survivor count,[2],5 of 6
same,survivor count,"dose: 200.0 mg/kg/injection, schedule: Q04DX003 (ip), vehicle: saline",6 of 6
CCOC(=O)c1cc(N)c(N2CCCC2)cc1Cl,T/C,"dose: 90.0 mg/kg/injection, schedule: Q04DX003 (ip), vehicle: saline with Tween-80",126 % of control
same,T/C,[5],127 % of control
S=c1nc[nH]c2c1ncn2CN1CCCCC1,T/C,[10],136 % of control
NC(=O)c1nc(-c2ccccc2)c(-c2ccccc2)[nH]c1=O,survivor count,[11],3 of 6
CN(C)c1ccc(/C=N/NC(N)=S)nc1,T/C,"dose: 19.0 mg/kg/injection, schedule: Q04DX003 (ip), vehicle: saline with Tween-80",136 % of control
same,T/C,"dose: 29.0 mg/kg/injection, schedule: Q04DX003 (ip), vehicle: saline with Tween-80",136 % of control
same,T/C,"dose: 30.0 mg/kg/injection, schedule: Q04DX003 (ip), vehicle: saline with Tween-80",125 % of control
same,T/C,"dose: 44.0 mg/kg/injection, schedule: Q04DX003 (ip), vehicle: saline with Tween-80",141 % of control
CC1=C2CC(C)(C)/C=C\C(=O)/C(C)=C\C3=C[C@H](C)C[C@]3(O2)C1=O,T/C,"dose: 12.0 mg/kg/injection, schedule: Q01DX010 (ip), vehicle: saline",145 % of control
same,survivor count,"dose: 16.0 mg/kg/injection, schedule: Q01DX010 (ip), vehicle: carboxymethylcellulose (CMC)",3 of 6
same,T/C,"dose: 18.0 mg/kg/injection, schedule: Q01DX010 (ip), vehicle: saline",140 % of control
same,T/C,"dose: 24.0 mg/kg/injection, schedule: Q01DX010 (ip), vehicle: saline",138 % of control
same,T/C,"dose: 27.0 mg/kg/injection, schedule: Q01DX010 (ip), vehicle: saline",145 % of control
same,survivor count,"dose: 36.0 mg/kg/injection, schedule: Q01DX010 (ip), vehicle: saline",6 of 6
same,survivor count,"dose: 54.0 mg/kg/injection, schedule: Q01DX010 (ip), vehicle: saline",2 of 6
COc1cc(/C=N\O)nc(-c2ccccn2)c1,survivor count,[9],1 of 3
COc1ccc(OC)c(/C=C(/C)[N+](=O)[O-])c1,T/C,"dose: 100.0 mg/kg/injection, schedule: Q04DX003 (ip), vehicle: saline with Tween-80",127 % of control
same,T/C,[5],131 % of control [5 of 6 alive]
same,survivor count,[6],4 of 6
FC(F)(F)c1nc2nc(Cl)c(Cl)nc2s1,survivor count,"dose: 25.0 mg/kg/injection, schedule: Q01DX009 (ip), vehicle: other",3 of 6
same,survivor count,"dose: 50.0 mg/kg/injection, schedule: Q01DX009 (ip), vehicle: other",5 of 6
CCC(C)(CC(=O)O)CC(=O)O,survivor count,"dose: 12.5 mg/kg/injection, schedule: Q01DX009 (ip), vehicle: saline with Tween-80",6 of 6
same,survivor count,[10],6 of 6
same,survivor count,[4],6 of 6
same,survivor count,[11],6 of 6
CCCCCCC(Nc1ncnc(Cl)c1N)C(C)O (stereo unspecified),survivor count,"dose: 50.0 mg/kg/injection, schedule: Q01DX009 (ip), vehicle: saline with Tween-80",3 of 6
same,survivor count,[10],0 of 6
same,survivor count,[4],0 of 6
CCCCCCCCCCCC[N+]1(CCCCCCCCCCCC)CCCC(C)C1 (stereo unspecified),T/C,"dose: 0.75 mg/kg/injection, schedule: Q01DX009 (ip), vehicle: Klucel (hydroxypropylcellulose) (HPC)",131 % of control
same,T/C,"dose: 1.5 mg/kg/injection, schedule: Q01DX009 (ip), vehicle: Klucel (hydroxypropylcellulose) (HPC)",134 % of control
same,survivor count,"dose: 3.0 mg/kg/injection, schedule: Q01DX009 (ip), vehicle: Klucel (hydroxypropylcellulose) (HPC)",5 of 6
same,survivor count,"dose: 6.0 mg/kg/injection, schedule: Q01DX009 (ip), vehicle: Klucel (hydroxypropylcellulose) (HPC)",3 of 6
CCOC(=O)c1[nH]cnc1/N=N/N(C)CCO,T/C,"dose: 33.0 mg/kg/injection, schedule: Q01DX009 (ip), vehicle: saline",135 % of control
same,survivor count,"dose: 132.0 mg/kg/injection, schedule: Q01DX009 (ip), vehicle: saline",6 of 6
same,T/C,"dose: 264.0 mg/kg/injection, schedule: Q01DX009 (ip), vehicle: saline",131 % of control
same,T/C,[11],136 % of control
same,T/C,[3],145 % of control
COc1cccc2c1C(=O)c1c(O)c3c(c(O)c1C2=O)C[C@@](O)(/C(C)=N/NC(=O)c1cccc([N+](=O)[O-])c1)C[C@@H]3OC1CC(N)C(O)C(C)O1 (stereo partly specified),T/C,"dose: 0.25 mg/kg/injection, schedule: Q01DX009 (ip), vehicle: water",135 % of control
same,T/C,"dose: 0.5 mg/kg/injection, schedule: Q01DX009 (ip), vehicle: water",137 % of control
C=CCOP(OCC=C)OCC=C,survivor count,[1],6 of 6

# From PubChem BioAssay AID328 (DTP/NCI, 2004)
